# From the supplement of paper PMC12819154, “High-throughput peptide-centric local stability assay extends protein–ligand identification to membrane proteins, tissues and bacteria” (Nature Structural & Molecular Biology, 2025)
# By UniProt entry, the sequences of proteins in these tests, tags left out. Where a name states a change or a piece, a line headed by the entry shows the natural chain unless it says otherwise.
# UniProt O14737: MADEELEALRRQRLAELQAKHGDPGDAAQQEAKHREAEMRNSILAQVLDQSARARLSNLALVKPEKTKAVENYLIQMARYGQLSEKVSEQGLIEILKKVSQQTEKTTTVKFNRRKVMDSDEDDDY
# UniProt O00584, whole entry: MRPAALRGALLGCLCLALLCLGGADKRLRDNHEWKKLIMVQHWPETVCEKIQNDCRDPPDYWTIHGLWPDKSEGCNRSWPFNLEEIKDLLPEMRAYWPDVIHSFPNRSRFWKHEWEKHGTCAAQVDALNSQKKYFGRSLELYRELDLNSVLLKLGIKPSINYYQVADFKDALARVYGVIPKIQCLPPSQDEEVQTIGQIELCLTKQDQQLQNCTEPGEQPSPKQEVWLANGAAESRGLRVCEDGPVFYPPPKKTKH
# UniProt C9JN71: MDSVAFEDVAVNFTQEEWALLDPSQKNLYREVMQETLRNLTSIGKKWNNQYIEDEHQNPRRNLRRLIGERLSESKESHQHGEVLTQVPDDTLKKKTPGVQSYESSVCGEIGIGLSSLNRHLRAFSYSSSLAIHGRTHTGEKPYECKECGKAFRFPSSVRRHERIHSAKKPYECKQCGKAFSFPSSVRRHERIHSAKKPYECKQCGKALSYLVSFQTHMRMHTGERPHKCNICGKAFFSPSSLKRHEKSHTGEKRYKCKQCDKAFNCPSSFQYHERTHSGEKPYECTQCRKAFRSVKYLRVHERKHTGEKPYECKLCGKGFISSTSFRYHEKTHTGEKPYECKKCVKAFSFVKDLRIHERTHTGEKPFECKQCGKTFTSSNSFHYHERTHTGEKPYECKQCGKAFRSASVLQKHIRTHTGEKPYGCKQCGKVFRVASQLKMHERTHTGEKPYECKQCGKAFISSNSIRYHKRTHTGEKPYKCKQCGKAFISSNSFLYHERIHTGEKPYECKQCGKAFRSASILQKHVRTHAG
# UniProt O14879: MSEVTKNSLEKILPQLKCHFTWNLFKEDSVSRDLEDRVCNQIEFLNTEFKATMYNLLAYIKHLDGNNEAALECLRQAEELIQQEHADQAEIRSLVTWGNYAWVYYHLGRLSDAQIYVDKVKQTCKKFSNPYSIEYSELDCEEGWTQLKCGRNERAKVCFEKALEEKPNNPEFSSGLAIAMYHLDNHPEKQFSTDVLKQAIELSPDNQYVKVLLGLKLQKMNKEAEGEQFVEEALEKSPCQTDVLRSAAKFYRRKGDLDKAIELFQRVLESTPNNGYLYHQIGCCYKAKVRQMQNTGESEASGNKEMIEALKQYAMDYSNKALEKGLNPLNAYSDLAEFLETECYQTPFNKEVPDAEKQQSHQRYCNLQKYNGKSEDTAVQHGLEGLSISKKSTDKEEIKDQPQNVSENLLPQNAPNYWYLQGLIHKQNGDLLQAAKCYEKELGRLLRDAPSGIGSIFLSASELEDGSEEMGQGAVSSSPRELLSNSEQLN
# UniProt O00330, whole entry: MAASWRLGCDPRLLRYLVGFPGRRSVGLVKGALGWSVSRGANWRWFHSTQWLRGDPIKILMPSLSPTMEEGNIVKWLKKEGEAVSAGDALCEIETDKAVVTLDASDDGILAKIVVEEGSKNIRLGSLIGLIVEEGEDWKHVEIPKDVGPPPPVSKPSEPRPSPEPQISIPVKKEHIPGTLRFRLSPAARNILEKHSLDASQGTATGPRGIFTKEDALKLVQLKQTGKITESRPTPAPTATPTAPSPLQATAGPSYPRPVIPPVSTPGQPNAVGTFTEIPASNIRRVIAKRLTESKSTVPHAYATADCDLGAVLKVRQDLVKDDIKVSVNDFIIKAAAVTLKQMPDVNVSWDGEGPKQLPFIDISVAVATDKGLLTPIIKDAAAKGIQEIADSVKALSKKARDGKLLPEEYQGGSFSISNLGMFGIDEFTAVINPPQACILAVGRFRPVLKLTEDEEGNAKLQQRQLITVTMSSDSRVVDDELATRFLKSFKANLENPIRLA
# UniProt O15371, whole entry: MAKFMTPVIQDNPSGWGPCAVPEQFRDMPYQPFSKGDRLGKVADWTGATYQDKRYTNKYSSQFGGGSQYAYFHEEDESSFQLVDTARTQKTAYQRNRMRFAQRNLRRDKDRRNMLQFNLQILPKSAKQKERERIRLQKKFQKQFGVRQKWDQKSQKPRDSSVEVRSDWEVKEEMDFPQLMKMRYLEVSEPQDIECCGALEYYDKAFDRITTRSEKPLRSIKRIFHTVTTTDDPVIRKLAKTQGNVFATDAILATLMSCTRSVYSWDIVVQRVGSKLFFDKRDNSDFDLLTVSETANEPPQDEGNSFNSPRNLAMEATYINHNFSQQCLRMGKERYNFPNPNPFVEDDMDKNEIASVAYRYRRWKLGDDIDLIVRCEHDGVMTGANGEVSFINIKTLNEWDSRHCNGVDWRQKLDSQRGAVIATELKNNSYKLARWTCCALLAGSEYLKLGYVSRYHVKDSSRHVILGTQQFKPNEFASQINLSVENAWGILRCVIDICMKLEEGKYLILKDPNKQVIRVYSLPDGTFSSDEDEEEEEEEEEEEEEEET
# UniProt O14641: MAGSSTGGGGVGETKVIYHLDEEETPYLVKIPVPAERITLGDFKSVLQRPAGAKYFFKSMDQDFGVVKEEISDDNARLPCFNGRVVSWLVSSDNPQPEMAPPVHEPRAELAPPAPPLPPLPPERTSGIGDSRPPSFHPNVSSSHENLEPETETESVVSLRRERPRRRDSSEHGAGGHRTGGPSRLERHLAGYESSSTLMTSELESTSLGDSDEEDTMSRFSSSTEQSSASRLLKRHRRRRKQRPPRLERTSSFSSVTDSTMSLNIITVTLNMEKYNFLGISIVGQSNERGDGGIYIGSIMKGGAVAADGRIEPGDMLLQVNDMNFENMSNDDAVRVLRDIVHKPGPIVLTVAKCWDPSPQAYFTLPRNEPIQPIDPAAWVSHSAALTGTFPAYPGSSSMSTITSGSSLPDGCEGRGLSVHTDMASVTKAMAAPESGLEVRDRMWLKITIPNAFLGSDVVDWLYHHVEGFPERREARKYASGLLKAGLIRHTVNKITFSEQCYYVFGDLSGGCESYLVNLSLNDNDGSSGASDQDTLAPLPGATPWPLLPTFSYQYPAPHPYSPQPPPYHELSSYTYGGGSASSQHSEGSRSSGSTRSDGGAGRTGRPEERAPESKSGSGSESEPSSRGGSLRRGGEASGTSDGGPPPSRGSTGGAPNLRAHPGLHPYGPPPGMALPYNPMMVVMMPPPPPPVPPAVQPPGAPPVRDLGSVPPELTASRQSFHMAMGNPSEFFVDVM
# UniProt O14936: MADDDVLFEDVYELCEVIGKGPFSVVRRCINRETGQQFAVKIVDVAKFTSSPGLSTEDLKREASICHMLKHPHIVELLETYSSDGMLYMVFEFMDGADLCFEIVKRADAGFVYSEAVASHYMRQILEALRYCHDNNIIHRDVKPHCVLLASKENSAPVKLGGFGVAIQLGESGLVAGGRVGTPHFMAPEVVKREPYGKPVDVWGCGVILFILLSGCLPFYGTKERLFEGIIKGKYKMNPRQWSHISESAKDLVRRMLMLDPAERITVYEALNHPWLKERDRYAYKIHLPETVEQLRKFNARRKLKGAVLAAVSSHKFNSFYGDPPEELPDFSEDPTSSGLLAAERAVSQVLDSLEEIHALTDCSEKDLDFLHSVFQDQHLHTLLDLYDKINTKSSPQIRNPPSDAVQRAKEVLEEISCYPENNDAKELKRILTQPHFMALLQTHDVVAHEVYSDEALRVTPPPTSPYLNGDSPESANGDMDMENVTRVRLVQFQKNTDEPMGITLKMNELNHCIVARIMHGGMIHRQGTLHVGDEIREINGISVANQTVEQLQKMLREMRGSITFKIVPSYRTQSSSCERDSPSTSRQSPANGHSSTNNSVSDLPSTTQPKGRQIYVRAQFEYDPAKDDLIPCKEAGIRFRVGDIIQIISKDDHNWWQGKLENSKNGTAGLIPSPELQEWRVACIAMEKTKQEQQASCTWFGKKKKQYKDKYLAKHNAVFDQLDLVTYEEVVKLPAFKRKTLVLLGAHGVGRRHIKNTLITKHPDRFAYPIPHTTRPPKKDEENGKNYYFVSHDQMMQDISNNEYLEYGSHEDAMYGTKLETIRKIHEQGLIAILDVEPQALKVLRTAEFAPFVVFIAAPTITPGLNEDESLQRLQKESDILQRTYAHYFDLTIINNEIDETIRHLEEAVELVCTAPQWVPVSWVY
# The list shows a part of the results. Small differences around the control level are noise.
# Compound: Cc1nc(Nc2ncc(C(=O)Nc3c(C)cccc3Cl)s2)cc(N2CCN(CCO)CC2)n1 [dasatinib]
# Test: log2 fold change of tryptic peptide abundance, ligand vs vehicle (limited proteolysis) (log2 ratio); higher = more trypsin-susceptible (destabilized)
# Conditions: ligand concentration: 5 uM; sample: K562 cleared lysate
row,Target,log2 fold change
1,"BCKDK (peptide sequence: LVRYFLDK, peptide start residue: 185) (UniProt O14874)",0.207
2,"PDCD5 (peptide sequence: LSNLALVKPEKTK, peptide start residue: 56) (UniProt O14737)",0.177
3,"ARPC3 (peptide sequence: QEDEVMR, peptide start residue: 124) (UniProt O15145)",0.444
4,"RNASET2 (peptide sequence: GLRVCEDGPVFYPPPKK, peptide start residue: 237) (UniProt O00584)",0.0618
5,"UniProt C9JN71 (peptide sequence: AFFSPSSLKR, peptide start residue: 235)",-0.286
6,"IFIT3 (peptide sequence: LSDAQIYVDKVK, peptide start residue: 110) (UniProt O14879)",0.569
7,"PDHX (peptide sequence: STVPHAYATADCDLGAVLK, peptide start residue: 296) (UniProt O00330)",-0.426
8,"EIF3D (peptide sequence: LGDDIDLIVR, peptide start residue: 365) (UniProt O15371)",0.282
9,"DVL2 (peptide sequence: VIYHLDEEETPYLVKIPVPAER, peptide start residue: 16) (UniProt O14641)",0.133
10,"CASK (peptide sequence: AQFEYDPAKDDLIPCKEAGIR, peptide start residue: 619) (UniProt O14936)",0.146
